Patent publication US20130039855

Sequences of proteins named here, by UniProt entry; tags and fusion partners are left off. Residues count along the entry.
UniProt P09038, 135-288: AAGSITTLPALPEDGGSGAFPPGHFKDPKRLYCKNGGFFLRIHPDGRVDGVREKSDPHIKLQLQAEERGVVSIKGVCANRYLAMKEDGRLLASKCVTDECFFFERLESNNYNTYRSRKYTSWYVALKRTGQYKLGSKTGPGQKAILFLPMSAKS

Molecular target: FGF2 (Homo sapiens) (UniProt P09038)
Assay: activity in cells
Settings: 2'-F all pyrimidines, purified recombinant protein, protein details: Peprotech
[1] = strong inhibition of FRS2/ERK phosphorylation in NIH3T3, FGF2 50 ng/ml
[2] = NIH3T3 FRS2/ERK phosphorylation, inhibition per figure legend, not listed among strong inhibitors, dose not given here

| Sequence | functional effect of the aptamer [1] | other results |
| --- | --- | --- |
| GGGCUUGUUCUGGAUCGCAUCAGUACUAGGGCUCUUAGGAGUGACCAGUGUGUUGUAAGGCGAUGCUCAGAAGCGGAG [Apt11] | active |  |
| GGGCUUGUUCUGGAUCGCCGUUAAAUGUCUAGUAGUACUAUUCAUGUUUACGGAUUGCGGCGAUGCUCAGAAGCGGAG [Apt1] |  | functional effect of the aptamer [2]: active |
| GGGCUUGUUCUGGAUCGCCUGAUAAGCAGGAGGGUGACGGUGAUGGCAGCUGUUUGGGGGCGAUGCUCAGAAGCGGAG [Apt7] | active |  |
| GGGCUUGUUCUGGAUCGCCUUACGAUUAGAGGAUAUUAUAUUUACUCGAUUGUUGGGGCGAUGCUCAGAAGCGGAG [Apt6] |  | functional effect of the aptamer [2]: active |
| GGGCUUGUUCUGGAUCGCGAUGCAAGUUACCAGUGUAGCUAGUUACUAGGGCGUGUGUUGGCGAUGCUCAGAAGCGGAG [Apt9] | active |  |
| GGGCUUGUUCUGGAUCGCUCGUUGACUAGGGCGUACAUCGUGACCAGUGUCAGUUCAGGGCGAUGCUCAGAAGCGGAG [Apt10] | active |  |
| GGGGCAAGUUACCAGUGUAGCUAGUUACUAGGGCGUGUCCC [Apt36 (shortened Apt9)] |  | functional effect of the aptamer (strong inhibition of FRS2/ERK phosphorylation in NIH3T3, variant of Apt9, dose not given here): active |
| GGGUACUAGGGCUCUUAGGAGUGACCAGUGUGCCC [Apt38 (shortened Apt11)] |  | functional effect of the aptamer (strong inhibition of FRS2/ERK phosphorylation in NIH3T3, variant of Apt11, dose not given here): active |
